Compound in the experiment: Nc1ncnc2c1ncn2[C@@H]1O[C@H](COP(=O)(O)OP(=O)(O)NP(=O)(O)O)[C@@H](O)[C@H]1O [adenylyl imidodiphosphate]
As to the kind of experiment: NP40-soluble protein abundance relative to vehicle (solubility fold change) (ratio); higher = more soluble protein in presence of AMP-PNP. A digest of the protocol:
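Across three independent experiments, values are fold changes against the detergent-processed vehicle for each replicate, based on vsn-normalised intensities. The samples were Jurkat crude lysate treated with eight concentrations (0.1 to 10 mM) for 10 min at room temperature and then 3 min at 37 °C. Lysate was solubilised with 0.8% NP40 and benzonase, ultracentrifuged, and the supernatant analysed by TMT-labelled LC-MS/MS.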

Chains of the proteins cited; added tags and fusions are not shown. Lines headed by an entry give the natural chain unless they say otherwise; changes in a name come on top.
UniProt Q8NB14: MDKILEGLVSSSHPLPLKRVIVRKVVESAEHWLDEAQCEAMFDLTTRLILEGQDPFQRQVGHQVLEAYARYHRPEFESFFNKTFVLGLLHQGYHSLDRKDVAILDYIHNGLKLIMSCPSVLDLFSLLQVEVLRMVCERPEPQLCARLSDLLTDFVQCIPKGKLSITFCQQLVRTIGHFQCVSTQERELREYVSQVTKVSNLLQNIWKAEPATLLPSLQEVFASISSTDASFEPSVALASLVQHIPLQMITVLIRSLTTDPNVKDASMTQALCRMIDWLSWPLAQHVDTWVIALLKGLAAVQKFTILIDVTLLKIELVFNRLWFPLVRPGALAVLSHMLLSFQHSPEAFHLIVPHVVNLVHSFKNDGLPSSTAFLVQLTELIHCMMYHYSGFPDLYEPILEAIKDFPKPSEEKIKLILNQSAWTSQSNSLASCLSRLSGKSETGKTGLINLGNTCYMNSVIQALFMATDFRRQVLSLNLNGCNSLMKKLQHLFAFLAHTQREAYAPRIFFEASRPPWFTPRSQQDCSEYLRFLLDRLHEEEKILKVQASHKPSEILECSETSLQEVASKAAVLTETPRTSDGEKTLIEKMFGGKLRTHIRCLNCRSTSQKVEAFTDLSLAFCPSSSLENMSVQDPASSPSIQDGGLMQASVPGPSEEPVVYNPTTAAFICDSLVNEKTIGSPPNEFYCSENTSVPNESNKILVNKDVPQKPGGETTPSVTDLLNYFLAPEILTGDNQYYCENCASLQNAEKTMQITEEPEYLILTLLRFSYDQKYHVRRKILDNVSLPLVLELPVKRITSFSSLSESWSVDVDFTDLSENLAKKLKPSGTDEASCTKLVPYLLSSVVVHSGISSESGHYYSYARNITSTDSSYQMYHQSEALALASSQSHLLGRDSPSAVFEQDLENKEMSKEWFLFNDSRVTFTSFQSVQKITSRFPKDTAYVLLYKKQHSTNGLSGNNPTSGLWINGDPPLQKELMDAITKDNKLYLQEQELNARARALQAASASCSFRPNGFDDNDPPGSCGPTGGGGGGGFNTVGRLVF
UniProt Q8N4S0: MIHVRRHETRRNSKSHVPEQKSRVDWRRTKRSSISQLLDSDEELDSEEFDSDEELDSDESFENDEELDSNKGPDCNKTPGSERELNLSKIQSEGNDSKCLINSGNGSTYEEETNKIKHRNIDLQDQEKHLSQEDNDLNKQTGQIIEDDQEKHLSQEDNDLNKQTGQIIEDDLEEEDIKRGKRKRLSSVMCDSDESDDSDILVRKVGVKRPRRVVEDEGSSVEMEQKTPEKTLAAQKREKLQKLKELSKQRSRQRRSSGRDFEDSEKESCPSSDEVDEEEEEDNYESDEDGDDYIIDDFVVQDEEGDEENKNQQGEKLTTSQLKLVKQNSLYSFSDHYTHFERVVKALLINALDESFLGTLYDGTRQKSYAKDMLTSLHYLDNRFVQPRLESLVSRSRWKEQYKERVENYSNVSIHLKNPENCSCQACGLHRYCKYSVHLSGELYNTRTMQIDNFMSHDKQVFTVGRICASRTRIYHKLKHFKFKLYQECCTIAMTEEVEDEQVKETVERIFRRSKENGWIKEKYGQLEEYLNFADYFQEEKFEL
UniProt Q86X53: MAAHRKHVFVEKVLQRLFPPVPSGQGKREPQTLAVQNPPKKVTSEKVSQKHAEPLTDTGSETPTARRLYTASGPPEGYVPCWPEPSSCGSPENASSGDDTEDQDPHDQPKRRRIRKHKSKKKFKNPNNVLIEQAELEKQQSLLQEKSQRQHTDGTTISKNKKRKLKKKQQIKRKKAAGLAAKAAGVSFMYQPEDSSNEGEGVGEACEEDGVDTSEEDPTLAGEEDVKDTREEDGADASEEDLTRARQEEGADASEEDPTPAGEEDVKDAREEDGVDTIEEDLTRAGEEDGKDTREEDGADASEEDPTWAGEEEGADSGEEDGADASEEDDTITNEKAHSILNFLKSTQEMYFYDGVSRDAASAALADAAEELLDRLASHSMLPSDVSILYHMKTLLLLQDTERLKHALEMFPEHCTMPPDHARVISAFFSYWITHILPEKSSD
UniProt Q86VP1, whole entry: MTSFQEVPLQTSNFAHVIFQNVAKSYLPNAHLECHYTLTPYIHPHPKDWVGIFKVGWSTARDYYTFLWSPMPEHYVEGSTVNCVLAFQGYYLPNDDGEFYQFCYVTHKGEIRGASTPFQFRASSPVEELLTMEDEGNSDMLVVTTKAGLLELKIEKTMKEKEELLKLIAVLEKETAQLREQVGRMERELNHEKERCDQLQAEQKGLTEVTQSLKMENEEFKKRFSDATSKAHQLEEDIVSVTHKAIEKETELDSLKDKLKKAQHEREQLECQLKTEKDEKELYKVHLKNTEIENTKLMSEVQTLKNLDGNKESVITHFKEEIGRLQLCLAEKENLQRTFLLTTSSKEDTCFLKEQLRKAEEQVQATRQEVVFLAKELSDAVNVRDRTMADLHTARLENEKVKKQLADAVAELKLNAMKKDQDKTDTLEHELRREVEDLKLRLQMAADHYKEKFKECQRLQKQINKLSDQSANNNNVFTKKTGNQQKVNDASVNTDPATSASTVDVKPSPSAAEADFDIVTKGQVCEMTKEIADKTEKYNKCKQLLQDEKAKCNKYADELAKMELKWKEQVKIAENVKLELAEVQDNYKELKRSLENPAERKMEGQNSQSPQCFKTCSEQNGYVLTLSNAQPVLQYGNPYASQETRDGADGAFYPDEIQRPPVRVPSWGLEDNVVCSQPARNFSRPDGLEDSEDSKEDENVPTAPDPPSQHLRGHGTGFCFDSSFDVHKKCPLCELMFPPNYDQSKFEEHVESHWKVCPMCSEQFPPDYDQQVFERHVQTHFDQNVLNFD
UniProt Q86U42: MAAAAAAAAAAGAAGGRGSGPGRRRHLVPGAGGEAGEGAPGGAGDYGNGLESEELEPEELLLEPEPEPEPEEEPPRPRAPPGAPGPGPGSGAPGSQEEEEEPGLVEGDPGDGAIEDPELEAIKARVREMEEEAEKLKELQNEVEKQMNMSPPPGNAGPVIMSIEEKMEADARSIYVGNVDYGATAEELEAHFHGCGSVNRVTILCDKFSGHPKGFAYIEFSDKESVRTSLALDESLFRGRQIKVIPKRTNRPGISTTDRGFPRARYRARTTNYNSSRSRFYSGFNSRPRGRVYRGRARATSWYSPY
UniProt Q86XI2: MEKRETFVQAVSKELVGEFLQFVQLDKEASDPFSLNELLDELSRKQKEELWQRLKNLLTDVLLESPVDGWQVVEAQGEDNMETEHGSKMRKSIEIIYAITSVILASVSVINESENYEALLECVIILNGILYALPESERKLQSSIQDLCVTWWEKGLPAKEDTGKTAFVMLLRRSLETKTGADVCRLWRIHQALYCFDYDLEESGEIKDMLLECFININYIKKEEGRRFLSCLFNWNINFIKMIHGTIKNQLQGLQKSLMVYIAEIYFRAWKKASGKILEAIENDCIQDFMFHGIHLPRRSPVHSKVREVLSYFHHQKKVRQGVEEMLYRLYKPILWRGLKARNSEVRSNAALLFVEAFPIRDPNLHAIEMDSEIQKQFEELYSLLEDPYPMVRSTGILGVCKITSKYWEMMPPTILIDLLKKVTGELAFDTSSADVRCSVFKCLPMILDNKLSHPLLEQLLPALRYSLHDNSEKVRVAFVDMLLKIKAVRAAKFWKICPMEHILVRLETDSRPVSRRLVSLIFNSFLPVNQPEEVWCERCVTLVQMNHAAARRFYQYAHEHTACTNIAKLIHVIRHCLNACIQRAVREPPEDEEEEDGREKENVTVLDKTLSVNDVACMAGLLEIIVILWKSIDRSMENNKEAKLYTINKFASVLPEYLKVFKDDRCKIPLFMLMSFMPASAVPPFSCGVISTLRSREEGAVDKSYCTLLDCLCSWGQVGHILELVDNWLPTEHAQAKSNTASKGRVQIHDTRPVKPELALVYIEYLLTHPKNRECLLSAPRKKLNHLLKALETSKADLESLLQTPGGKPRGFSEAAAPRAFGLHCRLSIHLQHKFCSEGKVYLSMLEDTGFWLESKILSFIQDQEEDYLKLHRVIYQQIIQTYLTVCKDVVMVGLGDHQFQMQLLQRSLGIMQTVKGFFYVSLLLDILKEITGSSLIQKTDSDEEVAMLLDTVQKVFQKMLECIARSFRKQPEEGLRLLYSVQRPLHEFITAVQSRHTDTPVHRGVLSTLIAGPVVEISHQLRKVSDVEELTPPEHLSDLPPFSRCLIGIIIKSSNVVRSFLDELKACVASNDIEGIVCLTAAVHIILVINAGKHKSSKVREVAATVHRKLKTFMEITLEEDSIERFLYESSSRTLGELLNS
UniProt Q8N9R8: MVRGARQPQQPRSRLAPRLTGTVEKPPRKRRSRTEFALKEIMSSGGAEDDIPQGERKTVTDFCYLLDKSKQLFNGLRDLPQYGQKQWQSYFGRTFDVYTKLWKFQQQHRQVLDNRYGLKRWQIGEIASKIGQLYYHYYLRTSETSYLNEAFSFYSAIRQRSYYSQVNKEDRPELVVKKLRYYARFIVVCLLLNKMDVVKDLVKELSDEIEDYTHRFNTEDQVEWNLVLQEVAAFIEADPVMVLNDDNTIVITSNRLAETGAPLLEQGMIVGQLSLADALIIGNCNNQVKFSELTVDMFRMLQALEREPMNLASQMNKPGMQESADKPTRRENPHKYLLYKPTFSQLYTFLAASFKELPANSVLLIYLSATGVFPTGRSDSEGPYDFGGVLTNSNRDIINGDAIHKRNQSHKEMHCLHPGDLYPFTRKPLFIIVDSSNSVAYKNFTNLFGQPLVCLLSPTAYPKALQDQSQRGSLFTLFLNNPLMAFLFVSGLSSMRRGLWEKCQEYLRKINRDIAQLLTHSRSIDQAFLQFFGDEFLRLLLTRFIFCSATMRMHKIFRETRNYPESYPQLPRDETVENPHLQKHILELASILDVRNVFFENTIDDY
UniProt Q8IXQ3: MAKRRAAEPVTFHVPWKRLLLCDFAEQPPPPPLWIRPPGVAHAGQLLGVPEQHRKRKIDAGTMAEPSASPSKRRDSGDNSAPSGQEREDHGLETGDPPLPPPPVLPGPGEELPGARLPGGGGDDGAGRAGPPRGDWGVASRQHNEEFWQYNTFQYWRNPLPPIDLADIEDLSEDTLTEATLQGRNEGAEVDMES
UniProt Q8N3D4: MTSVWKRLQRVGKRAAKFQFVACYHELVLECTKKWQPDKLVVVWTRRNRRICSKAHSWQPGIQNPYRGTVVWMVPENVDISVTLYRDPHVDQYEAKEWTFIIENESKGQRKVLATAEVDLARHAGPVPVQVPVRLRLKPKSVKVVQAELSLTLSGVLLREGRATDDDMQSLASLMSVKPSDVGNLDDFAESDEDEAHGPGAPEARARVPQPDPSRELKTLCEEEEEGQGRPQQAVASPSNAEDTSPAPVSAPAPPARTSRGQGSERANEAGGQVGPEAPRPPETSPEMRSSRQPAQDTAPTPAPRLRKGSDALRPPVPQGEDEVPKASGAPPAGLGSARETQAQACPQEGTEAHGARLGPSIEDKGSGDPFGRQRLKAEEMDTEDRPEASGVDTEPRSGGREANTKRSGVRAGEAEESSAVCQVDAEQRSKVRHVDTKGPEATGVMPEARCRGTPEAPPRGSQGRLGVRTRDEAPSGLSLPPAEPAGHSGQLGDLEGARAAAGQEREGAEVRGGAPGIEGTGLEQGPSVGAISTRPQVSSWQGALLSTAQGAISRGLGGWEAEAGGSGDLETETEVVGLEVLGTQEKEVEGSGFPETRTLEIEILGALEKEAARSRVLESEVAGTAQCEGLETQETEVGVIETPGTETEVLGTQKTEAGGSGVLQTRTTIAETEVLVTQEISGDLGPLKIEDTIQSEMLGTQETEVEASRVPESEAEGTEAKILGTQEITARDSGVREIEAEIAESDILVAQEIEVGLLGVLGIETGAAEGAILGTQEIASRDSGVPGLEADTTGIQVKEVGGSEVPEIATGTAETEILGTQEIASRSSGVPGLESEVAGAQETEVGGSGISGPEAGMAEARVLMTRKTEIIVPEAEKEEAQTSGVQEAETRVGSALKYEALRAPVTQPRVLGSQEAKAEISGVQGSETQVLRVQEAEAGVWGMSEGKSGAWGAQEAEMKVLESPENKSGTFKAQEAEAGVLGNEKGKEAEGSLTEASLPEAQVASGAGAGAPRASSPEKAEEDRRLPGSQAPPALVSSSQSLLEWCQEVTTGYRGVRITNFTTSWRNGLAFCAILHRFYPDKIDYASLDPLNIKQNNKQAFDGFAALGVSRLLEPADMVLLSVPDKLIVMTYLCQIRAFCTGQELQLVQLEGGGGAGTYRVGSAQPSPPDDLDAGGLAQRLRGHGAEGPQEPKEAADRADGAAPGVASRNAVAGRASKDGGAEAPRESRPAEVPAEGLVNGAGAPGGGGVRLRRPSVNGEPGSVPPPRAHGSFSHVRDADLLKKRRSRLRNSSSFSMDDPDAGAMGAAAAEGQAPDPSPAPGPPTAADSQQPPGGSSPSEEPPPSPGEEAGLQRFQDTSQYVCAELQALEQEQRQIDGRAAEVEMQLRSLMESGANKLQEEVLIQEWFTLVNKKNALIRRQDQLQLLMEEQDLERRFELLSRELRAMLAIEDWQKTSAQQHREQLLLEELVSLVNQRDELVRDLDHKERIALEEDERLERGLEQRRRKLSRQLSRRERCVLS

± gives the standard deviation of the averaged measurements. Only a part is listed here, and it is no random draw. Most values lie at the level of the controls, where differences are scatter.

With SLFN11 (UniProt Q7Z7L1), the NP40-soluble protein abundance (concentration: 0.1mM) stood at 1.08 ± 0.02 and the NP40-soluble protein abundance (concentration: 0.5mM) was 1.078 ± 0.0031.

For the target UniProt Q8N4L2 and related entries, the NP40-soluble protein abundance (concentration: 0.1mM) worked out at 0.978 ± 0.0031 and the NP40-soluble protein abundance (concentration: 0.5mM) was determined as 0.995 ± 0.018.

With UniProt Q8N0V3, the NP40-soluble protein abundance is, setting by setting: (concentration: 0.1mM) 1.02 ± 0.021; (concentration: 0.5mM) 1.02 ± 0.022.

Regarding ZNF687 (UniProt Q8N1G0), the NP40-soluble protein abundance (concentration: 0.1mM) worked out at 1 ± 0.034 and the NP40-soluble protein abundance (concentration: 0.5mM) turned out to be 0.999 ± 0.029.

With UniProt Q8N108 and related entries, the NP40-soluble protein abundance by setting is: (concentration: 0.1mM) 0.966 ± 0.026; (concentration: 0.5mM) 0.992 ± 0.022.

For the target UniProt Q8IV53 and related entries, the NP40-soluble protein abundance runs as follows: (concentration: 0.1mM) 0.978 ± 0.01; (concentration: 0.5mM) 0.998 ± 0.027.

In the case of USP38 (UniProt Q8NB14), the NP40-soluble protein abundance by setting is: (concentration: 0.1mM) 1.03 ± 0.031; (concentration: 0.5mM) 1.02 ± 0.038.

For GUF1 (UniProt Q8N442), the NP40-soluble protein abundance (concentration: 0.1mM) turned out to be 1.01 ± 0.055 and the NP40-soluble protein abundance (concentration: 0.5mM) turned out to be 0.996 ± 0.026.

As to C12orf29 (UniProt Q8N999), the NP40-soluble protein abundance (concentration: 0.1mM) came out at 0.97 ± 0.022 and the NP40-soluble protein abundance (concentration: 0.5mM) was 0.992 ± 0.024.

In the case of UniProt Q8NBM4 and related entries, the NP40-soluble protein abundance is, setting by setting: (concentration: 0.1mM) 0.973 ± 0.022; (concentration: 0.5mM) 0.963 ± 0.019.

As for CCDC82 (UniProt Q8N4S0), the NP40-soluble protein abundance by setting is: (concentration: 0.1mM) 0.977 ± 0.058; (concentration: 0.5mM) 0.99 ± 0.014.

As for UniProt Q8N5A5 and related entries, the NP40-soluble protein abundance reads like this: (concentration: 0.1mM) 1.01 ± 0.043; (concentration: 0.5mM) 1.04 ± 0.03.

Regarding Q8N655 (UniProt Q96JN0), the NP40-soluble protein abundance by setting is: (concentration: 0.1mM) 1.056 ± 0.0096; (concentration: 0.5mM) 1.05 ± 0.037.

Turning to TRAPPC5 (UniProt Q8IUR0), the NP40-soluble protein abundance (concentration: 0.1mM) is 0.982 ± 0.064 and the NP40-soluble protein abundance (concentration: 0.5mM) is 1.034 ± 0.0059.

UniProt Q86XL3 and related entries: the NP40-soluble protein abundance (concentration: 0.1mM) was found to be 0.9793 ± 0.0083 and the NP40-soluble protein abundance (concentration: 0.5mM) worked out at 0.9699 ± 0.0068.

As for UniProt Q8IZE3-2|X6RHX1, the NP40-soluble protein abundance by setting is: (concentration: 0.1mM) 1.02 ± 0.033; (concentration: 0.5mM) 1 ± 0.046.

Regarding RNF168 (UniProt Q8IYW5), the NP40-soluble protein abundance by setting is: (concentration: 0.1mM) 1 ± 0.017; (concentration: 0.5mM) 0.975 ± 0.02.

Consider UniProt Q86X53 and related entries, for which the NP40-soluble protein abundance by setting is: (concentration: 0.1mM) 0.984 ± 0.015; (concentration: 0.5mM) 0.9885 ± 0.0084.

For UniProt Q86YP4-2|Q86YP4-3|Q86YP4, the NP40-soluble protein abundance was 1.02 ± 0.03 (concentration: 0.1mM) and 1.02 ± 0.053 (concentration: 0.5mM).

For the target HOMER1 (UniProt Q86YM7), the NP40-soluble protein abundance runs as follows: (concentration: 0.1mM) 0.99 ± 0.021; (concentration: 0.5mM) 0.986 ± 0.011.

With “UniProt Q8N9N2-2|E9PKM6 and related entries”, the NP40-soluble protein abundance (concentration: 0.1mM) was determined as 1.02 ± 0.032 and the NP40-soluble protein abundance (concentration: 0.5mM) turned out to be 0.996 ± 0.021.

Regarding TMED4 (UniProt Q7Z7H5), the NP40-soluble protein abundance by setting is: (concentration: 0.1mM) 1 ± 0.04; (concentration: 0.5mM) 1.03 ± 0.013.

In the case of DDX51 (UniProt Q8N8A6), the NP40-soluble protein abundance runs as follows: (concentration: 0.1mM) 1.02 ± 0.038; (concentration: 0.5mM) 1.01 ± 0.033.

Take UniProt Q8IY17 and related entries: the NP40-soluble protein abundance (concentration: 0.1mM) stood at 1.03 ± 0.024 and the NP40-soluble protein abundance (concentration: 0.5mM) was 1.03 ± 0.051.

As to UniProt Q8NB37, the NP40-soluble protein abundance (concentration: 0.1mM) amounted to 1 ± 0.019 and the NP40-soluble protein abundance (concentration: 0.5mM) is 0.997 ± 0.013.

For UniProt Q86VP1-2|Q86VP1-4|B8ZZD4, the NP40-soluble protein abundance by setting is: (concentration: 0.1mM) 0.957 ± 0.053; (concentration: 0.5mM) 0.948 ± 0.029.

For the target UniProt Q8N511 and related entries, the NP40-soluble protein abundance (concentration: 0.1mM) amounted to 0.991 ± 0.036 and the NP40-soluble protein abundance (concentration: 0.5mM) came to 1.029 ± 0.0014.

Turning to ZADH2 (UniProt Q8N4Q0), the NP40-soluble protein abundance was 1.02 ± 0.044 (concentration: 0.1mM) and 0.987 ± 0.071 (concentration: 0.5mM).

Consider ZCCHC9 (UniProt Q8N567), for which the NP40-soluble protein abundance was determined as 1.03 ± 0.043 (concentration: 0.1mM) and 1.02 ± 0.011 (concentration: 0.5mM).

For the target LYSMD2 (UniProt Q8IV50), the NP40-soluble protein abundance is 1.04 ± 0.063 (concentration: 0.1mM) and 0.957 ± 0.053 (concentration: 0.5mM).

In the case of RYBP (UniProt Q8N488), the NP40-soluble protein abundance was 0.974 ± 0.023 (concentration: 0.1mM) and 1.02 ± 0.036 (concentration: 0.5mM).

On to UniProt Q86U42 and related entries, for which the NP40-soluble protein abundance worked out at 0.976 ± 0.024 (concentration: 0.1mM) and 1 ± 0.041 (concentration: 0.5mM).

Take UniProt Q8N954 and related entries: the NP40-soluble protein abundance (concentration: 0.1mM) amounted to 1.01 ± 0.043 and the NP40-soluble protein abundance (concentration: 0.5mM) came out at 1.01 ± 0.06.

In the case of UniProt Q8NBJ5, the NP40-soluble protein abundance turned out to be 0.997 ± 0.025 (concentration: 0.1mM) and 0.987 ± 0.029 (concentration: 0.5mM).

As to UniProt Q86XI2 and related entries, the NP40-soluble protein abundance reads like this: (concentration: 0.1mM) 1 ± 0.025; (concentration: 0.5mM) 0.981 ± 0.052.

Consider SPATA5 (UniProt Q8NB90), for which the NP40-soluble protein abundance (concentration: 0.1mM) came to 1.01 ± 0.023 and the NP40-soluble protein abundance (concentration: 0.5mM) came out at 1.05 ± 0.073.

For UniProt Q86UT6 and related entries, the NP40-soluble protein abundance runs as follows: (concentration: 0.1mM) 1.02 ± 0.025; (concentration: 0.5mM) 1.06 ± 0.042.

UniProt Q7Z7A1 and related entries: the NP40-soluble protein abundance was found to be 0.969 ± 0.043 (concentration: 0.1mM) and 0.979 ± 0.034 (concentration: 0.5mM).

On to ASCC3 (UniProt Q8N3C0), for which the NP40-soluble protein abundance (concentration: 0.1mM) worked out at 1 ± 0.028 and the NP40-soluble protein abundance (concentration: 0.5mM) amounted to 1.03 ± 0.051.

In the case of UniProt Q8NBJ4 and related entries, the NP40-soluble protein abundance is, setting by setting: (concentration: 0.1mM) 1 ± 0.02; (concentration: 0.5mM) 1.06 ± 0.072.

Turning to UBE2Q1 (UniProt Q7Z7E8), the NP40-soluble protein abundance came out at 1.03 ± 0.025 (concentration: 0.1mM) and 1.02 ± 0.022 (concentration: 0.5mM).

For GLCCI1 (UniProt Q86VQ1), the NP40-soluble protein abundance by setting is: (concentration: 0.1mM) 0.999 ± 0.025; (concentration: 0.5mM) 1.025 ± 0.0022.

Take UniProt Q8N9R8 and related entries: the NP40-soluble protein abundance runs as follows: (concentration: 0.1mM) 1.03 ± 0.015; (concentration: 0.5mM) 1 ± 0.067.

As for UniProt Q8NBK3 and related entries, the NP40-soluble protein abundance runs as follows: (concentration: 0.1mM) 0.983 ± 0.021; (concentration: 0.5mM) 0.997 ± 0.013.

For the target C1orf174 (UniProt Q8IYL3), the NP40-soluble protein abundance (concentration: 0.1mM) worked out at 0.99 ± 0.025 and the NP40-soluble protein abundance (concentration: 0.5mM) came out at 0.976 ± 0.012.

As for PIAS4 (UniProt Q8N2W9), the NP40-soluble protein abundance is, setting by setting: (concentration: 0.1mM) 1 ± 0.039; (concentration: 0.5mM) 1.02 ± 0.053.

In the case of C9orf40 (UniProt Q8IXQ3), the NP40-soluble protein abundance runs as follows: (concentration: 0.1mM) 0.989 ± 0.025; (concentration: 0.5mM) 1 ± 0.049.

Take UniProt Q8IXI2-2|Q8IXI2-3: the NP40-soluble protein abundance runs as follows: (concentration: 0.1mM) 1.02 ± 0.043; (concentration: 0.5mM) 0.996 ± 0.037.

For the target EHBP1L1 (UniProt Q8N3D4), the NP40-soluble protein abundance by setting is: (concentration: 0.1mM) 1.022 ± 0.0084; (concentration: 0.5mM) 1.01 ± 0.068.

As to UniProt Q86WA8 and related entries, the NP40-soluble protein abundance reads like this: (concentration: 0.1mM) 0.993 ± 0.032; (concentration: 0.5mM) 0.996 ± 0.022.

With UniProt Q86UW6 and related entries, the NP40-soluble protein abundance worked out at 0.992 ± 0.031 (concentration: 0.1mM) and 1.01 ± 0.054 (concentration: 0.5mM).

For the target METTL3 (UniProt Q86U44), the NP40-soluble protein abundance is 0.9929 ± 0.0058 (concentration: 0.1mM) and 1.01 ± 0.027 (concentration: 0.5mM).

For UniProt Q8N1G2, the NP40-soluble protein abundance is, setting by setting: (concentration: 0.1mM) 1.01 ± 0.052; (concentration: 0.5mM) 0.978 ± 0.044.

With YRDC (UniProt Q86U90), the NP40-soluble protein abundance by setting is: (concentration: 0.1mM) 0.996 ± 0.051; (concentration: 0.5mM) 1.03 ± 0.029.

Turning to EXOC8 (UniProt Q8IYI6), the NP40-soluble protein abundance reads like this: (concentration: 0.1mM) 1.01 ± 0.011; (concentration: 0.5mM) 1 ± 0.034.

Regarding C1orf52 (UniProt Q8N6N3), the NP40-soluble protein abundance runs as follows: (concentration: 0.1mM) 0.978 ± 0.038; (concentration: 0.5mM) 0.948 ± 0.024.

In the case of Q8IWY7 (UniProt Q6IQ55), the NP40-soluble protein abundance runs as follows: (concentration: 0.1mM) 0.981 ± 0.085; (concentration: 0.5mM) 0.955 ± 0.028.

With UniProt Q86TI0 and related entries, the NP40-soluble protein abundance was determined as 1.04 ± 0.011 (concentration: 0.1mM) and 1.01 ± 0.033 (concentration: 0.5mM).

UniProt Q8IWZ8: the NP40-soluble protein abundance worked out at 0.956 ± 0.031 (concentration: 0.1mM) and 0.976 ± 0.044 (concentration: 0.5mM).

These data come from the supplement of paper PMC6411743.
